According to doi:10.1101/2023.07.28.550915:
Positions count from the first letter of the chain named. Like-named read-outs stand apart in the source and are kept apart here. These are yes or no findings as the source states them, for the method shown. Binding seen in cells or lysates may run through a third protein. Some results given as binding are weak or reduced against the parent protein; the word gives no strength. For part of these data: Tags and fused reporters may be left off the sequences shown. Each block holds one molecule with its values, some of them ahead of it.

Chains of the proteins cited; added tags and fusions are not shown.
UniProt P49674: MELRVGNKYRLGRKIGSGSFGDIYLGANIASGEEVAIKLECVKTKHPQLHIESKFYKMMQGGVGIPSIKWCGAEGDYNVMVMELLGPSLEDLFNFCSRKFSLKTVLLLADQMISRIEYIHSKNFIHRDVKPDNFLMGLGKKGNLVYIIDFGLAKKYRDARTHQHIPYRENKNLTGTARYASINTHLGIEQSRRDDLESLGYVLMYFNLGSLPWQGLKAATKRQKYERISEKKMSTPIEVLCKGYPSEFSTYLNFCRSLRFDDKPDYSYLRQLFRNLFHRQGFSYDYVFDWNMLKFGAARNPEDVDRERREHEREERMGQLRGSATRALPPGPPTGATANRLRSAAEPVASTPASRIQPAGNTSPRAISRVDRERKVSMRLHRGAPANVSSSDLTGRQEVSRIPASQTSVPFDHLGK

Legend:
Experiment in all cases: co-IP
[1] = target: T1, Flag-tagged human DVL3 (Dishevelled 3), wild type (human) (UniProt Q92997)
T1 sequence: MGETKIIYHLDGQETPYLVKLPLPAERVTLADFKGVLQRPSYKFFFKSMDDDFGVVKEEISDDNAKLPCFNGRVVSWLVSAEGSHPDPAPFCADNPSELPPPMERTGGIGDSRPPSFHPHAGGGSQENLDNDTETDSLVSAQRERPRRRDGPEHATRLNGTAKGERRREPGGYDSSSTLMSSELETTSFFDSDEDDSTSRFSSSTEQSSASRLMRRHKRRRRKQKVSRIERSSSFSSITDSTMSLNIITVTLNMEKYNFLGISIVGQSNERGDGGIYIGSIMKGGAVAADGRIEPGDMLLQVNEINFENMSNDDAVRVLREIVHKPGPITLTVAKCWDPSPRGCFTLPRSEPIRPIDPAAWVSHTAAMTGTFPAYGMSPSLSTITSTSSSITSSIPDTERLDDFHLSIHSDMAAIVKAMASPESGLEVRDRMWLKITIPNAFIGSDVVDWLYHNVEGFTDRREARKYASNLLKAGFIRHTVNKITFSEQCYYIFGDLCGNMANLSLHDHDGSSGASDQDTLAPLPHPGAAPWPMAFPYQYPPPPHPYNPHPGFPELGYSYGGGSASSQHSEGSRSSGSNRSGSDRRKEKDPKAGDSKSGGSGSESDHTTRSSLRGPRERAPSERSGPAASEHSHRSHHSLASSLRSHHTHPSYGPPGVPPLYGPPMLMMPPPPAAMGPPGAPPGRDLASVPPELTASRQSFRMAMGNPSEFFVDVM

[2] = target: T1, Flag-tagged human DVL3 (Dishevelled 3), wild type (human); remark: listed apart in the source
[3] = target: T2, DVL3 E710A/D714A (glutamylation-defective DVL3) (human) (UniProt Q92997)
T2 sequence: T1 sequence with E710A, D714A

DVL1 (human) = target: T3, DVL1 (human) (UniProt O14640)
T3 sequence: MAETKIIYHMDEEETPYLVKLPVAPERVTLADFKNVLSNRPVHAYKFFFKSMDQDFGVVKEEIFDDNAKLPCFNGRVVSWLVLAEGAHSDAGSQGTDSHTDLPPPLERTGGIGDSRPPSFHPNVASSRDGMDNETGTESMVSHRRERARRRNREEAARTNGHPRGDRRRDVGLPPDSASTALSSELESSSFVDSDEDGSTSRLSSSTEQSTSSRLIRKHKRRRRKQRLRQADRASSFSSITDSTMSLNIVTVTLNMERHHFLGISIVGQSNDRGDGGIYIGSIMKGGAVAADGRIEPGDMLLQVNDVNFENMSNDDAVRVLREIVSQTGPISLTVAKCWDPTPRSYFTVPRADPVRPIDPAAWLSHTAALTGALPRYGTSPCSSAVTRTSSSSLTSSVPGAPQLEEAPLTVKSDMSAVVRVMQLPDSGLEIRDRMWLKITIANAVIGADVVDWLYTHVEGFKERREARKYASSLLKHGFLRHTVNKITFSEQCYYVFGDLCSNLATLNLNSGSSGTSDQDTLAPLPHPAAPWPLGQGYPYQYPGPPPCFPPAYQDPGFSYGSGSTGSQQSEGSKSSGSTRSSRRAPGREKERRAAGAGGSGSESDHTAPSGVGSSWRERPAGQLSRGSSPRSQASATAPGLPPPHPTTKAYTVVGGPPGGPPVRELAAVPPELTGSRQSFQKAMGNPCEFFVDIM

Molecule: casein kinase 1 (CK1) ε, endogenous (from UniProt P49674 1-416) (enzyme)
- binding [1]: binds

B1: CCP5 (cytosolic carboxypeptidase 5), EYFP-tagged (enzyme, UniProt Q09M02 1-886)
chain: MELRCGGLLFSSRFDSGNLAHVEKVETVSSDGEGVGGVATAPASGSAASPDYEFNVWTRPDCAETEYENGNRSWFYFSVRGGTPGKLIKINIMNMNKQSKLYSQGMAPFVRTLPSRPRWERIRERPTFEMTETQFVLSFVHRFVEGRGATTFFAFCYPFSYSDCQDLLSQLDQRFSENYSTHSSPLDSIYYHRELLCYSLDGLRVDLLTITSCHGLRDDREPRLEQLFPDLGTPRPFRFTGKRIFFLSSRVHPGETPSSFVFNGFLDFILRPDDPRAQTLRRLFVFKLIPMLNPDGVVRGHYRTDSRGVNLNRQYLKPDAVLHPAIYGAKAVLLYHHVHSRLNAKSPTNQQPTLHLPPEAPLSDLEKANNLHNEAHLGQSPDGENPATWPETEPAEEKTDPVWLMPQPIPELEEPAPDTIPPKESGVAYYVDLHGHASKRGCFMYGNSFSDESTQVENMLYPKLISLNSAHFDFQGCNFSEKNMYARDRRDGQSKEGSGRVAIYKASGIIHSYTLECNYNTGRSVNSIPAACHDNGRASPPPPPAFPSRYTVELFEQVGRAMAIAALDMAECNPWPRIVLSEHSSLTNLRAWMLRHVRNSRGLTSAGNMGASKKRGARTPPKSNNSLPVSCSENALSRVRSFSTGTSTGGSSSSQQNSPQMKNSPSFPFHGSRTAGLPGLGSSTQKVSHRVLGPVREPRCSDRRRRQQPLNHRSTTSSLAPSPTLASSGPTSSRNMGSCLLPNSLSLSGSSCSFSSSGDKPEAVMVIGKSLLGAGARIPCIRTRLQARPRLGRSSPPTRRGMRGSSPTSPIPQTRESSELEPGPHSATPGLPQAGPPRPRSAPAFSPISCTLSDSPSRICYSRGLLNQCEVCFVPKSPPLTISPRV
- binding [2]: binds
- binding [3]: binds

More lines, now with the values ahead:

- binding [2]: binds
- binding [3]: binds
B2: CCP6 (cytosolic carboxypeptidase 6), EYFP-tagged (enzyme, UniProt Q09LZ8 1-540)
chain: MAERSQTAPEAGNDTGNEDAIGGNVNKYIVLPNGYSGQPKKGHLTFDACFESGNLGRVEQVSDFEYDLFIRPDTCNPRFRVWFNFTVENVKELQRVIFNIVNFSKTKSLYRDGMAPMVKSTSRPKWQRLPPKNVYYYRCPDHRKNYVMSFAFCFDREDDIYQFAYCYPYTYTRFQHYLDSLQKKNMDYFFREQLGQSVQQRQLDLLTITSPENLREGSEKKVIFITGRVHPGETPSSFVCQGIIDFLVSQHPIARVLREHLVFKIAPMLNPDGVYLGNYRCSLMGFDLNRHWLDPSPWAHPTLHGVKQLIIKMYNDPKTSLEFYIDIHAHSTMMNGFMYGNIFEDEERFQRQSIFPKLLCQNAEDFSYTSTSFNRDAVKAGTGRRFLGGLLDHSSYCYTLEVSFYSYIIGGTTAAVPYTEEAYMKLGRNVARTFLDYYRLNSLVEKIAVPMPRLRSKEERRLGWEHPSCLRAEQPLEVLGIPMCSGKALNEHLGNDIQWHLDCGSSTLPLGLISCSPSSSASWNDMAMSNSILLPDHSFH

- binding [2]: binds
- binding (DVL1 (human)): binds
B3: human TTLL11 (tubulin tyrosine ligase-like 11) (enzyme, UniProt Q8NHH1 1-710)
chain: MRRGSSESELAARWEAEAVAAAKAAAKAEAEATAETVAEQVRVDAGAAGEPECKAGEEQPKVLAPAPAQPSAAEEGNTQVLQRPPPTLPPSKPKPVQGLCPHGKPRDKGRSCKRSSGHGSGENGSQRPVTVDSSKARTSLDALKISIRQLKWKEFPFGRRLPCDIYWHGVSFHDNDIFSGQVNKFPGMTEMVRKITLSRAVRTMQNLFPEEYNFYPRSWILPDEFQLFVAQVQMVKDDDPSWKPTFIVKPDGGCQGDGIYLIKDPSDIRLAGTLQSRPAVVQEYICKPLLIDKLKFDIRLYVLLKSLDPLEIYIAKDGLSRFCTEPYQEPTPKNLHRIFMHLTNYSLNIHSGNFIHSDSASTGSKRTFSSILCRLSSKGVDIKKVWSDIISVVIKTVIALTPELKVFYQSDIPTGRPGPTCFQILGFDILLMKNLKPILLEVNANPSMRIEHEHELSPGVFENVPSLVDEEVKVAVIRDTLRLMDPLKKKRENQSQQLEKPFAGKEDALDGELTSAPDCNANPEAHLPSICLKQVFPKYAKQFNYLRLVDRMANLFIRFLGIKGTMKLGPTGFRTFIRSCKLSSSSLSMAAVDILYIDITRRWNSMTLDQRDSGMCLQAFVEAFFFLAQRKFKMLPLHEQVASLIDLCEYHLSLLDEKRLVCGRGVPSGGRPPHRGPPQEPSPSAQPAGDNPPPRTSCANKLSHPRHTLS

- binding [2]: binds
- binding [3]: binds
B4: CCP1 (cytosolic carboxypeptidase 1), EYFP-tagged (enzyme, UniProt Q641K1 1-1218)
chain: MSKLKVVGEKSLTNSSRVVGLLAQLEKINTDSTESDTARYVTSKILHLAQSQEKTRREMTTKGSTGMEVLLSTLENTKDLQTVLNILSILIELVSSGGGRRASFLVAKGGSQILLQLLMNASKDSPPHEEVMVQTHSILAKIGPKDKKFGVKARVNGALTVTLNLVKQHFQNYRLVLPCLQLLRVYSTNSVNSVSLGKNGVVELMFKIIGPFSKKNSGLMKVALDTLAALLKSKTNARRAVDRGYVQVLLTIYVDWHRHDNRHRNMLIRKGILQSLKSVTNIKLGRKAFIDANGMKILYNTSQECLAVRTLDPLVNTSSLIMRKCFPKNRLPLPTIKSSFHFQLPIIPVTGPVAQLYSLPPEVDDVVDESDDNDDIDLEVENELENEDDLDQSFKNDDIETDINKLRPQQVPGRTIEELKMYEHLFPELVDDFQDYELISKEPKPFVFEGKARGPIVVPTAGEEVPGNSGSVKKGVVMKERASPKGEEAKEDPKGHDRTLPQQLGGQSRVAPSAHSFNNDLVKALDRITLQNVPSQVASGLNAGMRKDFGLPLTVLSCTKACPHVAKCGSTLFEGRTVHLGKLCCTGVETEDDEDTESHSSTEQAPSVEASDGPTLHDPDLYIEIVKNTKSVPEYSEVAYPDYFGHIPPPFKEPILERPYGVQRTKIAQDIERLIHQNDIIDRVVYDLDNPTYTTPEEGDTLKFNSKFESGNLRKVIQIRKSEYDLILNSDINSNHYHQWFYFEVSGMRPGVAYRFNIINCEKSNSQFNYGMQPLMYSVQEALNARPWWIRMGTDICYYKNHFSRSSVAAGGQKGKSYYTITFTVNFPHKDDVCYFAYHYPYTYSTLQMHLQKLESAHNPQQIYFRKDVLCETLSGNICPLVTITAMPESNYYEHICQFRTRPYIFLSARVHPGETNASWVMKGTLEYLMSNSPTAQSLRESYIFKIVPMLNPDGVINGNHRCSLSGEDLNRQWQSPNPELHPTIYHAKGLLQYLAAVKRLPLVYCDYHGHSRKKNVFMYGCSIKETVWHTHDNSASCDIVEDMGYRTLPKILSHIAPAFCMSSCSFVVEKSKESTARVVVWREIGVQRSYTMESTLCGCDQGRYKGLQIGTRELEEMGAKFCVGLLRLKRLTSSLEYNLPSNLLDFENDLIESSCKVTSPTTYVLDEDEPRFLEEVDYSAESNDELDVELAENTGDYEPSAQEEALSDSEVSRTHLI
